Test results from US11904052B2, “Methods for ameliorating infusion reactions” (ARBUTUS BIOPHARMA CORPORATION, priority 2016, dated 2024).
“Also recorded” adds a separate entry of the source. At least one structure is not confirmed: it was looked up by name or label, or the drawing left a doubt.

Legend:
[1] = test system: conscious minipig; assay: Mean arterial blood pressure by radiotelemetry after LNP2 infusion in the conscious minipig; format: in vivo, Gottingen minipigs; details: iv bolus 10 minutes prior to LNP2 infusion; ketorolac 1 mg/kg, dexamethasone 0.3 mg/kg
From the text: (§1) Four (4) treatment naïve female Gottingen minipigs (Marshall Farms, N.Y.) were surgically implanted with a D70-PCT PhysioTel implantable radiotelemetry transmitter (Data Sciences International, St. Paul, Minn.) to allow for the measurement of physical activity, body temperature, ECG, heart rate, and arterial blood pressure. The pigs were allowed to recover from surgery for at least 7 days prior to use in the study.
(§2) Following surgical recovery, the same four pigs (15-20 kg) received a 60-minute intravenous infusion of vehicle (0.9% saline), LNP2, LNP2+ketorolac, or LNP2+dexamethasone as outlined in the Table 1. Each treatment cohort was separated by a 7-day washout period.
(§3) Just prior to each infusion and at approximately 1, 3, 6 and 24 hours after the start of each infusion, a mixed venous blood sample was taken, processed to plasma, stored frozen, and used for subsequent analysis of thromboxane B2 (11-dehydrothromboxane B2). Heart rate and arterial blood pressure was continuously recorded from 30 minutes prior to each infusion to 24 hours after the start of each infusion.

[2] = test system: thromboxane B2; assay: Plasma thromboxane B2 after LNP2 infusion in the conscious minipig; format: in vivo, Gottingen minipigs; details: iv bolus 10 minutes prior to LNP2 infusion; ketorolac 1 mg/kg, dexamethasone 0.3 mg/kg
From the text: as §1, §2, §3

Compound: C[C@@H]1C[C@H]2[C@@H]3CCC4=CC(=O)C=C[C@]4(C)[C@@]3(F)[C@@H](O)C[C@]2(C)[C@@]1(O)C(=O)CO [dexamethasone]
- effect on the acute infusion reaction to LNP2 (increase in blood pressure) [1]: not by dexamethasone; also recorded: minimal to no effect
- effect on the delayed hypotension after LNP2 infusion [1]: effectively prevented
- effect on the LNP2-induced increase in thromboxane B2 [2]: reduced, but not completely
